Source: patent US20030176339A1
No constants are given. Whether binding was seen depends on the method and setting. Binding seen in cells or lysates may run through a third protein. Some binding calls cover weakened binding; strength is not graded here. Where a sequence is shown, tags or fusion partners need not be part of it. Values belong to the binder of their own block, whether it stands above or below them.

Sequences of proteins named here, by UniProt entry; tags and fusion partners are left off. Residues count along the entry.
UniProt P02647, residues 25-267: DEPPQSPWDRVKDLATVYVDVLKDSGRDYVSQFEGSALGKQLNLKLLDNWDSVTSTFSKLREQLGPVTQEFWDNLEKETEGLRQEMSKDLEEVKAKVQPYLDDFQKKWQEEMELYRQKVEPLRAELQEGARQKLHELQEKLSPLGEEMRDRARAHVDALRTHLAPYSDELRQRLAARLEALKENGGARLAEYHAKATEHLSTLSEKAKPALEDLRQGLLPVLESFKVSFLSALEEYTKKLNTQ

Biological target: human apolipoprotein A-I (Sigma), cross-linked to CNBr-activated Sepharose resin (human) (UniProt P02647)
Assay: pull-down of COS7 supernatant on apo A-I Sepharose, EDTA elution, anti-Myc Western blot

binding: binds
B1: partial fragment III of human cubilin (positions 1165-2091; fragment peptide CUB7-CUB14), Myc and His tagged, COS7 culture supernatant (receptor, not shown: small tags and cut ends)
chain: CGGNLTTSSGTFISPNYPMPYYHSSECYWWLKSSHGSAFELEFKDFHLEHHPNCTLDYLAVYDGPSSNSHLLTQLCGDEKPPLIRSSGDSMFIKLRTDEGQQGRGFKAEYRQTCENVVIVNQTYGILESIGYPNPYSENQHCNWTIRATTGNTVNYTFLAFDLEHHINCSTDYLELYDGPRQMGRYCGVDLPPPGSTTSSKLQVLLLTDGVGRREKGFQMQWFVYGCGGELSGATGSFSSPGFPNRYPPNKECIWYIRTDPGSSIQLTIHDFDVEYHSRCNFDVLEIYGGPDFHSPRIAQLCTQRSPENPMQVSSTGNELAIRFKTDLSINGRGFNASWQAVTGGCGGIFQAPSGEIHSPNYPSPYRSNTDCSWVIRVDRNHRVLLNFTDFDLESQDSCIMAYDGLSSTMSRLARTCGREQLANPIVSSGNSLFLRFQSGPSRQNRGFRAQFRQACGGHILTSSFDTVSSPRFPANYPNNQNCSWIIQAQPPLNHITLSFTHFELERSTTCARDFVEILDGGHEDAPLRGRYCGTDMPHPITSFSSALTLRFVSDSSISAGGFHTTVTASVSACGGTFYMAEGIFNSPGYPDIYPPNVECVWNIVSSPGNRLQLSFISFQLEDSQDCSRDFVEIREGNATGHLVGRYCGNSFPLNYSSIVGHTLWVRFISDGSGSGTGFQATFMKIFGNDNIVGTHGKVASPFWPENYPHNSNYQWTVNVNASHVVHGRILEMDIEEIQNCYYDKLRIYDGPSIHARLIGAYCGTQTESFSSTGNSLTFHFYSDSSISGKGFLLEWFAVDAPDGVLPTIAPGACGGFLRTGDAPVFLFSPGWPDSYSNRVDCTWLIQAPDSTVELNILSLDIESHRTCAYDSLVIRDGDNNLAQQLAVLCGREIPGPIRSTGEYMFIRFTSDSSVTRAGFNASFHKS

binding: binds
B2: CUB9-CUB14 fragment peptide of human cubilin (positions 1391-2091), Myc and His tagged, COS7 culture supernatant (receptor, not shown: small tags and cut ends)
chain: CGGELSGATGSFSSPGFPNRYPPNKECIWYIRTDPGSSIQLTIHDFDVEYHSRCNFDVLEIYGGPDFHSPRIAQLCTQRSPENPMQVSSTGNELAIRFKTDLSINGRGFNASWQAVTGGCGGIFQAPSGEIHSPNYPSPYRSNTDCSWVIRVDRNHRVLLNFTDFDLESQDSCIMAYDGLSSTMSRLARTCGREQLANPIVSSGNSLFLRFQSGPSRQNRGFRAQFRQACGGHILTSSFDTVSSPRFPANYPNNQNCSWIIQAQPPLNHITLSFTHFELERSTTCARDFVEILDGGHEDAPLRGRYCGTDMPHPITSFSSALTLRFVSDSSISAGGFHTTVTASVSACGGTFYMAEGIFNSPGYPDIYPPNVECVWNIVSSPGNRLQLSFISFQLEDSQDCSRDFVEIREGNATGHLVGRYCGNSFPLNYSSIVGHTLWVRFISDGSGSGTGFQATFMKIFGNDNIVGTHGKVASPFWPENYPHNSNYQWTVNVNASHVVHGRILEMDIEEIQNCYYDKLRIYDGPSIHARLIGAYCGTQTESFSSTGNSLTFHFYSDSSISGKGFLLEWFAVDAPDGVLPTIAPGACGGFLRTGDAPVFLFSPGWPDSYSNRVDCTWLIQAPDSTVELNILSLDIESHRTCAYDSLVIRDGDNNLAQQLAVLCGREIPGPIRSTGEYMFIRFTSDSSVTRAGFNASFHKS
